Experimental data as given in PubChem BioAssay AID493014 (National Center for Advancing Translational Sciences (NCATS), 2011).
Some of the results follow. These are further read-outs of the screen, such as a control signal, another cell line or another target. No call is given for them. The list favours compounds with an active or inconclusive main result. The note in brackets gives the kind of curve behind each potency; many fits are weak.

Experiment: qHTS Assay to Find Inhibitors of Chronic Active B-Cell Receptor Signaling
Conditions: ABC-DLBCL IkBa-CBG/CBR reporter, luminescence ratio (green luciferase fused to IkBa over red control in TMD8 lymphoma cells), 4 h
Procedure, shortened: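 Compounds up to 46 uM were incubated four hours with TMD8 cells whose green CBG68 luciferase is fused to IkappaBalpha; red CBR luminescence normalised the signal, and concentration-effect curves were fitted to fusion, red and ratio data.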

[1] = measured here: CBR red luminescence, cell number
[2] = measured here: IkBa-CBG green luminescence

Row | Structure (SMILES) | AC50 [1] | AC50 [2]
1 | Cc1[nH][nH]c(=O)c1C(c1ccc(-c2ccccc2C(=O)O)o1)c1c(C)[nH][nH]c1=O | 14.1 µM [rising, single point] | 
2 | Cc1ccc(S(=O)(=O)/C(C#N)=C/c2c(N3CC(C)OC(C)C3)nc3c(C)cccn3c2=O)cc1 (configuration not stated) | 16.4 µM [falling, partial curve, poor fit] | 
3 | O=C(COc1cccc(Oc2ccccc2)c1)Nc1ccc(SC(F)F)cc1 | 6.51 µM [falling, partial curve, poor fit] | 
4 | O=C(NCCCN1CCCC1=O)c1ccc2c(c1)ncn2C1CCCCC1 | 8.2 µM [rising, partial curve, poor fit] | 
5 | COc1ccc(Cn2c(-c3ccco3)nc3oc4cc(OC)ccc4c(=O)c3c2=O)cc1 | 3.55 µM [falling, full curve] | 
6 | Cc1ccc(-c2nc(-c3ccncc3)no2)cc1Cl | 0.398 µM [rising, full curve, poor fit] | 
7 | CSc1c(-c2ccccn2)c(N)nn1C(=O)C1CC1 | 12.6 µM [rising, single point] | 
8 | COc1ccc2c(C)cc(SCC(=O)N3CCOCC3)nc2c1 | 0.0891 µM [rising, full curve, poor fit] | 
9 | O=C(Nc1nnc(Cc2ccc(Cl)cc2)s1)c1ccncc1 | 12.6 µM [rising, single point] | 
10 | N#Cc1cn(Cc2ccccc2)c2ccccc12 | 3.26 µM [rising, full curve, poor fit] | 5.8 µM [falling, partial curve, poor fit]
11 | CNC(=O)C1CCN(C(=O)c2ccc(-c3ccccc3)cc2)CC1 | 0.82 µM [falling, full curve, poor fit] | 
12 | Cc1cccc(C)c1NC(=O)COC(=O)CCc1ccc(S(=O)(=O)N2CCCCC2)cc1 | 14.6 µM [falling, partial curve] | 
13 | CSc1nnc(NC(=O)c2ccc3c(c2)OCO3)s1 | 1.58 µM [falling, full curve, poor fit] | 
14 | Cn1c(-c2ccco2)nc2cc3ccccc3cc21 | 12.6 µM [falling, single point] | 
15 | COc1ccc(-c2nc(CSCC(=O)NCCC3=CCCCC3)c(C)o2)cc1OC | 16.4 µM [rising, single point] | 
16 | O=C(O)c1ccccc1C(=O)NNc1ccc(Cl)cc1 | 11.2 µM [rising, partial curve, poor fit] | 
17 | CC(=O)NS(=O)(=O)c1ccc(NC(=O)c2cc(-c3ccc(C)c(C)c3)nc3ccccc23)cc1 |  | 3.98 µM [rising, full curve, poor fit]
18 | CC(=O)C1=C(C)NC(SCSc2ccccc2)=C(C#N)C1c1cccnc1 (configuration not stated) | 20.6 µM [falling, partial curve, poor fit] | 
19 | COc1ccc(C2NC(=O)NC3=C2CCc2ccccc23)cc1 (configuration not stated) | 8.91 µM [rising, partial curve] | 
20 | Cc1cc(S(=O)(=O)N2CCN=C2c2ccccc2)ccc1F | 29.1 µM [rising, single point] | 
21 | COc1ccc(NC(=O)CCN2C(=O)c3ccccc3S2(=O)=O)c(OC)c1 | 35.5 µM [rising, single point] | 

Row | Structure (SMILES) | AC50 [1] | AC50 [2]
22 | O=C(N/N=C/c1ccc(Br)s1)c1ccccc1[N+](=O)[O-] | 7.94 µM [falling, partial curve] | 
23 | CC(=O)Nc1sc(N/N=C\c2ccc(O)cc2)nc1-c1cccs1 | 35.5 µM [falling, single point] | 
24 | O=C(O)c1cccc(N/N=C/c2sc(N3CCOCC3)nc2-c2ccccc2)c1 | 13 µM [falling, partial curve] | 
25 | CC(C)(C)c1cc(CN2CCN(CCC#N)CC2)cc(C(C)(C)C)c1O | 7.08 µM [falling, full curve, poor fit] | 
26 | COc1ccc(S(=O)(=O)N2CCOCC2)cc1NC(=O)c1ccncc1 | 2.91 µM [falling, full curve] | 
27 | CCc1sc(Nc2cccc(Cl)c2)nc1-c1cc2cccc(OC)c2oc1=O | 22.4 µM [falling, single point] | 
28 | O=C(Nc1ccc(Cl)cc1C(=O)Nc1ccncc1)c1ccco1 | 4.11 µM [falling, partial curve, poor fit] | 
29 | Cc1cc(CNC(=O)C(C)n2cc([N+](=O)[O-])cn2)c2ccccc2n1 (configuration not stated) | 35.5 µM [rising, single point] | 25.1 µM [falling, single point]
30 | COCC(C)n1c(SCC(=O)Nc2sccc2C(N)=O)nc2ccccc2c1=O (configuration not stated) | 18.4 µM [falling, single point] | 
31 | C=CCSc1nnc2c(n1)OC(c1ccco1)Nc1ccccc1-2 (configuration not stated) | 10.3 µM [falling, partial curve] | 
32 | CCOC(=O)Nc1ccc(C(=O)/C=C/c2ccccc2)cc1 | 35.5 µM [falling, single point] | 15.8 µM [rising, partial curve, poor fit]
33 | O=C(Nc1ccc2nc3n(c(=O)c2c1)CCCCC3)c1ccccc1[N+](=O)[O-] | 7.94 µM [falling, partial curve] | 
34 | CN(C)CCCN(C(=O)c1ccc(C(=O)c2ccccc2)cc1)c1nc2cc3c(cc2s1)OCO3 | 22.4 µM [falling, partial curve, poor fit] | 
35 | COC(=O)c1ccc(OCC(=O)c2cccc(OC)c2)cc1 | 0.82 µM [falling, full curve, poor fit] | 
36 | C/C(CC(=O)Nc1cccnc1)=N\NC(=O)C(=O)Nc1cccc(C)c1 | 16.4 µM [falling, single point] | 
37 | CN(C(=O)c1c[nH]c2ccc(S(=O)(=O)Nc3cccc(C(F)(F)F)c3)cc2c1=O)C1CCCCC1 | 5.62 µM [falling, full curve, poor fit] | 
38 | COc1cccc2sc(NC(=O)c3ccc(S(=O)(=O)N4CCOCC4)cc3)nc12 | 7.31 µM [falling, partial curve] | 2.31 µM [rising, partial curve, poor fit]
39 | O=C(Cn1c(=O)cnc2ccccc21)Nc1cc(Cl)ccc1N1CCOCC1 | 0.58 µM [rising, full curve, poor fit] | 
40 | COc1ccc(-c2noc(-c3cccc(Cl)c3)n2)cc1OC | 14.6 µM [rising, partial curve, poor fit] | 
41 | O=C(C1=C[C@@H](c2csc3ccccc23)C[C@@H](OCCCCO)O1)N1CCN(Cc2ccc3c(c2)OCO3)CC1 | 10 µM [falling, partial curve, poor fit] | 
42 | Cc1ccc(OC(=O)c2sc(Cl)nc2C)cc1C |  | 20.6 µM [rising, partial curve, poor fit]

Row | Structure (SMILES) | AC50 [1] | AC50 [2]
43 | CCOc1ccc(N=CC2=C(O)CC(C)(C)CC2=O)cc1 | 11.2 µM [rising, partial curve, poor fit] | 
44 | CCOC(=O)C(Sc1nn(C)c(=S)s1)C(C)=O (configuration not stated) | 29.1 µM [rising, single point] | 
45 | Cc1ccccc1C(=O)NC[C@@H]1CCCN2CCCC[C@H]12 | 8.91 µM [rising, partial curve] | 
46 | CC(=O)Nc1ccc(Nc2nc(-c3sc(C)nc3C)cs2)cc1 | 17.8 µM [falling, single point] | 
47 | COC(=O)c1cc2sccc2n1Cc1ccc(C)cc1 | 2.51 µM [rising, full curve, poor fit] | 
48 | COc1ccc(Br)cc1[C@H]1[C@@H]2C=CCC[C@@]2(C)C(=O)N1Cc1ccccc1 | 12.6 µM [falling, partial curve, poor fit] | 
49 | COc1ccc(-c2csc(NC(=O)c3ccccc3F)n2)cc1 | 7.94 µM [rising, partial curve] | 
50 | CCOC(=O)C(C)n1cnc2c(nnn2-c2cccc(Cl)c2)c1=O (configuration not stated) | 3.26 µM [falling, single point] | 
51 | Cc1ccc(OCc2ccc(C(=O)N3CCOCC3)cc2)cc1C | 3.26 µM [falling, partial curve] | 
52 | Cc1occc1C(=O)N/N=C/c1ccccc1[N+](=O)[O-] | 11.2 µM [falling, partial curve, poor fit] | 
53 | Cc1ccccc1OCC(=O)Nc1ccc(NC(=O)c2ccco2)cc1 | 35.5 µM [rising, partial curve, poor fit] | 
54 | Oc1ccccc1/C=N/N1CCCCC1 | 7.08 µM [rising, full curve, poor fit] | 
55 | CC(C)CN=CC1=C(O)c2ccccc2C1=O | 10 µM [falling, partial curve, poor fit] | 
56 | Cc1cc(C)n(CCN(C)Cc2nc(Cc3ccccc3F)no2)n1 | 2.82 µM [falling, full curve] | 
57 | COc1ccc(/C=C(\NC(=O)c2ccccc2)C(=O)N2CCCCC2)cc1OC | 35.5 µM [rising, single point] | 
58 | O=C(COC(=O)CNC(=O)c1ccccc1)NC1CCCCC1 | 11.6 µM [rising, partial curve] | 
59 | CN(C(=O)c1ccc2nc(N)sc2c1)c1ccccc1 | 3.55 µM [rising, full curve, poor fit] | 
60 | CNC(=S)N/N=C/c1ccc(N2CCOCC2)s1 | 3.55 µM [falling, full curve, poor fit] | 5.01 µM [falling, full curve]
61 | O=C(CN1CCN(c2ccccc2F)CC1)c1c[nH]c2ccc(F)cc12 | 8.2 µM [falling, partial curve, poor fit] | 
62 | CCCCn1c(O)c(/C=C2\C=Nc3ccccc32)c(=O)[nH]c1=O | 15.8 µM [falling, single point] | 
